PubChem BioAssay AID743121 | NCATS – 2013

Assay: 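Partners whose loss is lethal together with topoisomerase I blockade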 (primary screen)
Cell system: MDA-MB-231 cells, a human breast cancer line
Reagents: single siRNA against human genes, 20 nM siRNA (0.8 pmol per well)
Duration: 120 h (drug added 48 h after transfection, read 72 h later)
Challenge: camptothecin 20 nM (about EC30) for 72 h; vehicle 0.1% DMSO in parallel plates
Detection: 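Cell viability by ATP luminescence (CellTiter-Glo) as % of non-targeting siRNA wells, and the log2 ratio of viability without drug over viability with camptothecin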
Scale: log2 vehicle/camptothecin viability: higher = stronger sensitisation to camptothecin
Call rule: 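Each gene scored by redundant siRNA activity (RSA) over its individual siRNA ratios; a gene is called active at p < 0.001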
Here is a random part of about 26,000 deposited reagents. In the full data, 167 (0.63%) are marked active. 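Calls are per gene from RSA p-values that are not deposited; an individual active-marked siRNA can sensitise only weakly.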 Entries without a mark were called inactive. The numbers tell different reagents against one gene apart. Further read-outs or replicates are left out here.

Against VN1R10P #1 the deposit lists log2 vehicle/camptothecin viability 0.897.
With knock-down of VN1R10P #2 the results were log2 vehicle/camptothecin viability 0.103.
After knock-down of VN1R10P #3, the record shows log2 vehicle/camptothecin viability 0.345.
For VN1R10P #4, the values are log2 vehicle/camptothecin viability -0.213.
With knock-down of HIPK4 #1, the record shows log2 vehicle/camptothecin viability -0.702.
HIPK4 #2 scored log2 vehicle/camptothecin viability -0.0766.
With knock-down of HIPK4 #3, the record shows log2 vehicle/camptothecin viability 0.106.
HIPK4 #4 scored log2 vehicle/camptothecin viability -0.184.
MAML2 #1 scored log2 vehicle/camptothecin viability -0.244.
Depletion of MAML2 #2 gave: log2 vehicle/camptothecin viability 0.0576.
Silencing of MAML2 #3 came out at: log2 vehicle/camptothecin viability -0.816.
For GP9 #1, the values are log2 vehicle/camptothecin viability 1.02.
GP9 #2 showed log2 vehicle/camptothecin viability -0.338.
After knock-down of GP9 #3, the record shows log2 vehicle/camptothecin viability -0.575.
For GP9 #4, the entry reads log2 vehicle/camptothecin viability 0.639.
Against TCF7 #1 the deposit lists log2 vehicle/camptothecin viability 0.276.
Knock-down of TCF7 #2 gave: log2 vehicle/camptothecin viability 0.544.
TCF7 #3 scored log2 vehicle/camptothecin viability 0.968.
After knock-down of TCF7 #4, the record shows log2 vehicle/camptothecin viability -0.00456.

A run of entries from the list above:
GP9 #1 → log2 vehicle/camptothecin viability = 1.02
GP9 #2 → log2 vehicle/camptothecin viability = -0.338
GP9 #3 → log2 vehicle/camptothecin viability = -0.575
GP9 #4 → log2 vehicle/camptothecin viability = 0.639
TCF7 #1 → log2 vehicle/camptothecin viability = 0.276
TCF7 #2 → log2 vehicle/camptothecin viability = 0.544

Next results:
With knock-down of COQ6 #1, the screen gave log2 vehicle/camptothecin viability -0.149.
COQ6 #2 showed log2 vehicle/camptothecin viability -0.0144.
With knock-down of COQ6 #3, the screen gave log2 vehicle/camptothecin viability -0.162.
COQ6 #4 showed log2 vehicle/camptothecin viability 0.0219.
MAP3K1 #1 showed log2 vehicle/camptothecin viability -0.328.
With knock-down of MAP3K1 #2 the results were log2 vehicle/camptothecin viability 0.236.
MAP3K1 #3 showed log2 vehicle/camptothecin viability -0.14.
For MAP3K1 #4, the values are log2 vehicle/camptothecin viability -0.418.
For KLF16 #1 the deposit lists log2 vehicle/camptothecin viability -0.443.
KLF16 #2 gave log2 vehicle/camptothecin viability -0.165.
With knock-down of KLF16 #3, the screen gave log2 vehicle/camptothecin viability -0.276.
Silencing of KLF16 #4 resulted in: log2 vehicle/camptothecin viability 0.447.
P4HA3 #1 scored log2 vehicle/camptothecin viability 0.022.
With knock-down of P4HA3 #2, the record shows log2 vehicle/camptothecin viability 0.972.
For P4HA3 #3 the deposit lists log2 vehicle/camptothecin viability -0.0165.
With knock-down of ROBO4 #1, the record shows log2 vehicle/camptothecin viability -0.214.
Silencing of ROBO4 #2 came out at: log2 vehicle/camptothecin viability -0.185.
ROBO4 #3 scored log2 vehicle/camptothecin viability -0.388.
Knock-down of ROBO4 #4 came out at: log2 vehicle/camptothecin viability 0.0177.
After knock-down of ABCA10 #1 the results were log2 vehicle/camptothecin viability -0.2.
With knock-down of ABCA10 #2 the results were log2 vehicle/camptothecin viability 0.0101.
After knock-down of ABCA10 #3 the results were log2 vehicle/camptothecin viability -0.274.
For ABCA10 #4, the values are log2 vehicle/camptothecin viability -0.324.
CLK2 #1 gave log2 vehicle/camptothecin viability -0.373.
Against CLK2 #2 the deposit lists log2 vehicle/camptothecin viability 0.0332.
For CLK2 #3, the entry reads log2 vehicle/camptothecin viability -0.0693.
CLK2 #4 scored log2 vehicle/camptothecin viability -0.543.
